Results: paper PMC4614378, “A cancer-associated mutation inactivates a region of the high-mobility group protein HMG20b essential for cytokinesis” (Cell Cycle, 2014)
No constants are given. Whether binding was seen depends on the method and setting. For some assays here: Binding seen in cells or lysates may run through a third protein. Some binding calls cover weakened binding; strength is not graded here. Tags and fused reporters may be left off the sequences shown.

T1: GST-BRCA2 fragment (1613-1781) containing BRC5 repeat (human) (UniProt P51587)
T1 sequence: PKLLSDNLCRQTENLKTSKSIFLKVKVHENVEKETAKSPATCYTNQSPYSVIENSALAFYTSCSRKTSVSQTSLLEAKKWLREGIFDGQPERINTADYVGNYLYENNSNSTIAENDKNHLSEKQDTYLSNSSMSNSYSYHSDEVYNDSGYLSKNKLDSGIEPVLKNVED

T2: Biotinylated BRC5 peptide (BRCA2 amino acid residues 1661-1695) (human) (UniProt P51587)
T2 sequence (peptide, biotin (position not stated)): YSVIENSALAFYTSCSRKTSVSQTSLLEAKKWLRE

B1: full-length FLAG-HMG20b (wild type) (protein, UniProt Q9P0W2 1-317)
chain: MSHGPKQPGAAAAPAGGKAPGQHGGFVVTVKQERGEGPRAGEKGSHEEEPVKKRGWPKGKKRKKILPNGPKAPVTGYVRFLNERREQIRTRHPDLPFPEITKMLGAEWSKLQPTEKQRYLDEAEREKQQYMKELRAYQQSEAYKMCTEKIQEKKIKKEDSSSGLMNTLLNGHKGGDCDGFSTFDVPIFTEEFLDQNKAREAELRRLRKMNVAFEEQNAVLQRHTQSMSSARERLEQELALEERRTLALQQQLQAVRQALTASFASLPVPGTGETPTLGTLDFYMARLHGAIERDPAQHEKLIVRIKEILAQVASEHL
B2: HMG20b fragment aa265-317 with C-terminal 6xHis tag (domain or fragment, UniProt Q9P0W2 265-317)
chain: SLPVPGTGETPTLGTLDFYMARLHGAIERDPAQHEKLIVRIKEILAQVASEHL

What was measured:
[1] = target: T1, GST-BRCA2 fragment (1613-1781) containing BRC5 repeat (human); test: pull-down; GST-BRCA2 fragment on Glutathione Sepharose beads, 293T cell extracts expressing Flag-HMG20b; 50mM Tris-HCl pH 7.4, 300mM NaCl, 1% NP-40, 5mM EDTA, 10mM NaF, 0.1% BSA; 30 minutes at room temperature; anti-Flag western blot; only the target purified
[2] = target: T2, Biotinylated BRC5 peptide (BRCA2 amino acid residues 1661-1695) (human); test: pull-down; 1 nmol biotinylated BRC5 peptide on Dynabeads M-280 Streptavidin, 100 pmol purified HMG20b fragment; 50mM Tris-HCl pH 7.4, 150mM NaCl, 1% NP-40, 5mM EDTA, 10mM NaF, 0.1% BSA; 30 minutes at room temperature; Coomassie staining; both purified

Binder | binding [1] | binding [2]
B1 | binds | 
B2 |  | no binding (tested: 100 pmol fragment with 1 nmol peptide)
